These are yes or no findings as the source states them, for the method shown. Binding calls can cover weak binding; strength is not graded here.

Amino acid sequences for entries named in this document (tags omitted). A change or cut given only in a name is not applied to a line headed by its entry.
UniProt P10408: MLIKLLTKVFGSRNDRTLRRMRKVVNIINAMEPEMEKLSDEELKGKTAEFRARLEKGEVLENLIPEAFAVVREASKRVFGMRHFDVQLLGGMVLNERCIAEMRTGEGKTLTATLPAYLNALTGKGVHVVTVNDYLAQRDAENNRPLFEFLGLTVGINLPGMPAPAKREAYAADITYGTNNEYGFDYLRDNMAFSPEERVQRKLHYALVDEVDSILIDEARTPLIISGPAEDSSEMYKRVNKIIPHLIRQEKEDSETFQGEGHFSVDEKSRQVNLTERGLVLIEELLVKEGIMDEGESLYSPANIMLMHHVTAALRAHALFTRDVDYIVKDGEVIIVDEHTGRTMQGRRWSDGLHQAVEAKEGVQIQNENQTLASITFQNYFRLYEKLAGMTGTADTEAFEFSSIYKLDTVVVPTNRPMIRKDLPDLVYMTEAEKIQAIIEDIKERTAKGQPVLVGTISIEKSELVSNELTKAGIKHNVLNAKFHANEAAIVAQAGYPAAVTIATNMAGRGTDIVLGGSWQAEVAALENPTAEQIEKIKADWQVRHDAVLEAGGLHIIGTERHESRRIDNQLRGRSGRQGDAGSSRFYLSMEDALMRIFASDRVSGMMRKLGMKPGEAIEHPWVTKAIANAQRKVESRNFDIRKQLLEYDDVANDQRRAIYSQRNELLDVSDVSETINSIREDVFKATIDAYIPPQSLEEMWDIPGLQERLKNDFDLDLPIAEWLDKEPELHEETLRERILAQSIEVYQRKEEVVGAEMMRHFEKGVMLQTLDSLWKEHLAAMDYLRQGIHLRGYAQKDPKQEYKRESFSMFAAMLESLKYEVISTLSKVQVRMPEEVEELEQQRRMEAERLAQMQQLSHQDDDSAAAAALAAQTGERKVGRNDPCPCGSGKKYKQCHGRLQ

Assay [1] has as its target T1, His6-tagged SecB (Escherichia coli, UniProt P0AG86 1-153).
T1 construct: SecB chaperone, Escherichia coli; The tag is named explicitly only in Materials and for the SecB/proOmpA assembly; also called SecB tetramer; tetrameric SecB
T1 sequence: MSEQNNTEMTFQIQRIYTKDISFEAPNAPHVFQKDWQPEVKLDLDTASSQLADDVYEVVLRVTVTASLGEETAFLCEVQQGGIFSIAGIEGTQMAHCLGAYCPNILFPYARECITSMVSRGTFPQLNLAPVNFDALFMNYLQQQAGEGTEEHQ
In words: SEC; SecA monomer 3 uM and SecB monomer 30 uM incubated 1 h at 4 °C in buffer A (20 mM HEPES-KOH, 30 mM KCl, 1 mM DTT, pH 7.4); Superdex G200 analytical column at 4 °C; peak fraction checked by SDS-PAGE; both purified. (In general: In gel filtration, larger molecules generally elute earlier.)

The target in assay [2] is T1, His6-tagged SecB. In words: negative-stain electron microscopy, single-particle 3D reconstruction; SecA/proOmpA/SecB complex, 1% uranyl acetate; 24 Å reconstruction from 2,704 particles after multi-model refinement, no symmetry; crystal structures docked into the map; both purified.

Turning to SecA (from UniProt P10408) (enzyme), the binding entry in assay [1] and in assay [2] was “binds” in each case.

(Values after paper PMC3029384, “Dimeric SecA Couples the Preprotein Translocation in an Asymmetric Manner” (PLoS ONE, 2011).)
